The values that follow come from paper PMC8132058.

Sequences of proteins named here, by UniProt entry; tags and fusion partners are left off.
UniProt Q13620: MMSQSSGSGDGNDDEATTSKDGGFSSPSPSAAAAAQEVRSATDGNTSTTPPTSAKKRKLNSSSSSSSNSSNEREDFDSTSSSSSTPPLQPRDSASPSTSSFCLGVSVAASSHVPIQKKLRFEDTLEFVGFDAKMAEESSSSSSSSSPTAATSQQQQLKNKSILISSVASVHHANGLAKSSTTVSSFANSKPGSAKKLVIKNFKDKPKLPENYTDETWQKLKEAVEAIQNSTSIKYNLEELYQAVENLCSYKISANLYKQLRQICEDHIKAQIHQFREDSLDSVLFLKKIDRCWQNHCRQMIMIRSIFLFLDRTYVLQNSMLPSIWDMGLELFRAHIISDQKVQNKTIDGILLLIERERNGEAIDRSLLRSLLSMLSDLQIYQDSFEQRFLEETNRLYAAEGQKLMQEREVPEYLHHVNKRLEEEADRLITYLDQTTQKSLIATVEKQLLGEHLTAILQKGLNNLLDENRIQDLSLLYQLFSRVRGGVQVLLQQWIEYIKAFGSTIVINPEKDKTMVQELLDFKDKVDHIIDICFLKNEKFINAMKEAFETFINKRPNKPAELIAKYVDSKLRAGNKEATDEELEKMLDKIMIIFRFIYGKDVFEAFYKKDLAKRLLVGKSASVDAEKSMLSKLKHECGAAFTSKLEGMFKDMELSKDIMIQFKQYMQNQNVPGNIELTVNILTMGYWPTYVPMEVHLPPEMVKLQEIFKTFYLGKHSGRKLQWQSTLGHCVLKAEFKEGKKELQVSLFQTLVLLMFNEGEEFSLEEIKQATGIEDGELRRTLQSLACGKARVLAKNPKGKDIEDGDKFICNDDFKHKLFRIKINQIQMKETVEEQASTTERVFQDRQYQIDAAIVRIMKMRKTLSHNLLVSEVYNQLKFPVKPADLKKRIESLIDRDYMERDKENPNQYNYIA
UniProt Q16531: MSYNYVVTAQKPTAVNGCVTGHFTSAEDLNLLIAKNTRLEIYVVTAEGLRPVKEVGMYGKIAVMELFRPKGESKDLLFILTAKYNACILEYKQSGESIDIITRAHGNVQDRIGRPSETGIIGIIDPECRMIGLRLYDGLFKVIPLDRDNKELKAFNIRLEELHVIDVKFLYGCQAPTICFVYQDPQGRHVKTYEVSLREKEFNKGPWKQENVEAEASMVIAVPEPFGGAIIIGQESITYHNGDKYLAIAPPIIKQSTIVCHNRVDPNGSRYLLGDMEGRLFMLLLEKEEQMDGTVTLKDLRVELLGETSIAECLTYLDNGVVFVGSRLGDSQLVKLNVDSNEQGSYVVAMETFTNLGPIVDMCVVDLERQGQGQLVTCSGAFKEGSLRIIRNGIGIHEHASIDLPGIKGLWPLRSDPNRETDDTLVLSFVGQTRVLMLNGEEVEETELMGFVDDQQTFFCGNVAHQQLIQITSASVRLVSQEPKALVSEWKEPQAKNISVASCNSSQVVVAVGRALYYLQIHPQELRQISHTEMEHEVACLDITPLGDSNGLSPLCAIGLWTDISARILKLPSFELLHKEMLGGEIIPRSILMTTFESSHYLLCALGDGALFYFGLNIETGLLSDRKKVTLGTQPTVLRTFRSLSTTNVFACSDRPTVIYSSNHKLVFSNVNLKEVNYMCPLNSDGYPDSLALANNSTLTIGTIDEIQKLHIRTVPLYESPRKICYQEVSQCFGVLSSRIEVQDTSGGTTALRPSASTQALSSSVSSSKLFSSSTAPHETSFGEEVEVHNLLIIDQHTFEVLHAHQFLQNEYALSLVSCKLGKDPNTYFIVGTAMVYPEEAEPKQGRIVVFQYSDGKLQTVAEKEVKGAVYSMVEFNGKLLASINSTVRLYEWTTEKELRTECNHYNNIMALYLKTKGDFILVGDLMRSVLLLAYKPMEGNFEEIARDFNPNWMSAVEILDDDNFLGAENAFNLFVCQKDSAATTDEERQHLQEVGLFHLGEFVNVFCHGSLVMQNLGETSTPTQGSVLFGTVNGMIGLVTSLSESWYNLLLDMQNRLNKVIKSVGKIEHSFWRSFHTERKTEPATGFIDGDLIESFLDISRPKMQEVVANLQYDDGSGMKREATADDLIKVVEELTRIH
UniProt O94776: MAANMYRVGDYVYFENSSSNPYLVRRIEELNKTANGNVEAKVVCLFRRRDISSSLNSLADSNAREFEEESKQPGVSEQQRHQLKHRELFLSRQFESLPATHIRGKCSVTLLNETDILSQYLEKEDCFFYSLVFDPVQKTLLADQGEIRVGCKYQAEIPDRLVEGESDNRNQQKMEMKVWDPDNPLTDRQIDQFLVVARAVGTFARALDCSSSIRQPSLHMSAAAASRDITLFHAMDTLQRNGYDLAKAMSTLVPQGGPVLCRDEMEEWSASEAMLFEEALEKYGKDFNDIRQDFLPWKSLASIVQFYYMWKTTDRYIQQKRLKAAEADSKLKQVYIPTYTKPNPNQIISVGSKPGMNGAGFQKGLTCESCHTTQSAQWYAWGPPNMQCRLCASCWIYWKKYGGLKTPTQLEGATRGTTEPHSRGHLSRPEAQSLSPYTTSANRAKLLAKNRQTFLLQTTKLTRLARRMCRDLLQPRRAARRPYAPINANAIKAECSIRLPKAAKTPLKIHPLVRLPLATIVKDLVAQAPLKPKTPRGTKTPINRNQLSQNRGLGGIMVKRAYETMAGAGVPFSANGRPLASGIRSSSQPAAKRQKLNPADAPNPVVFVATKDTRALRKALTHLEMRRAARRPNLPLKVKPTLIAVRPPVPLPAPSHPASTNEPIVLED
UniProt O15379: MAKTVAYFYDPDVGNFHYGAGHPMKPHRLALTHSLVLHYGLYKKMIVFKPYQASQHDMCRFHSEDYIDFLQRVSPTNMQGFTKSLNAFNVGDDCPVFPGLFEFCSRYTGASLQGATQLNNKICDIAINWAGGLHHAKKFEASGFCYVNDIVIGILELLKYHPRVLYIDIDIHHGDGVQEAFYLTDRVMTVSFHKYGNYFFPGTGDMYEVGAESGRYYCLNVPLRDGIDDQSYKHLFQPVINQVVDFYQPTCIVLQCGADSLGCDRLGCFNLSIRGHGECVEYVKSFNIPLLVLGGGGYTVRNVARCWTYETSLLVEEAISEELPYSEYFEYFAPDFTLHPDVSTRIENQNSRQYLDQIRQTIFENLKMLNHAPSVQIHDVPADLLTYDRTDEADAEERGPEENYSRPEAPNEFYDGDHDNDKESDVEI
UniProt Q92769: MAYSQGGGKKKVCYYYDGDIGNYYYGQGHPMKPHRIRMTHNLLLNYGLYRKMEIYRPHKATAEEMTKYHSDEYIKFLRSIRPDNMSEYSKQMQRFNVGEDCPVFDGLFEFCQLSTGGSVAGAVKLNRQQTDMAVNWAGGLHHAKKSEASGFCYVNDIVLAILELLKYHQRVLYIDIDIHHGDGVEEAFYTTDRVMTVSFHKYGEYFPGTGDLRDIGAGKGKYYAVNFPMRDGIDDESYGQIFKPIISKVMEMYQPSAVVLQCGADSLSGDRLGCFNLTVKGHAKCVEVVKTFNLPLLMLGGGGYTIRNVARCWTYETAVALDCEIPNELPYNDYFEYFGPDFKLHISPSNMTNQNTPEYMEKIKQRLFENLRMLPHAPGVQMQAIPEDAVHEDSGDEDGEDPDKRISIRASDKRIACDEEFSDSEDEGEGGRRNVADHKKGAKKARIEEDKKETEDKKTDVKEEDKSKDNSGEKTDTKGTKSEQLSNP
UniProt O95863: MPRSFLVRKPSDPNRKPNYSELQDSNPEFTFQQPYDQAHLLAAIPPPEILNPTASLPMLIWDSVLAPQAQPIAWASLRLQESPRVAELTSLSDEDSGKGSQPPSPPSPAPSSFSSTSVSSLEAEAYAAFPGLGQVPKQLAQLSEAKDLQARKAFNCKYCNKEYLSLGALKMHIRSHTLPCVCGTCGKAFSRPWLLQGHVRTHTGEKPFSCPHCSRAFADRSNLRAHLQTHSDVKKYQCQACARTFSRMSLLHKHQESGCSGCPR
UniProt Q13547: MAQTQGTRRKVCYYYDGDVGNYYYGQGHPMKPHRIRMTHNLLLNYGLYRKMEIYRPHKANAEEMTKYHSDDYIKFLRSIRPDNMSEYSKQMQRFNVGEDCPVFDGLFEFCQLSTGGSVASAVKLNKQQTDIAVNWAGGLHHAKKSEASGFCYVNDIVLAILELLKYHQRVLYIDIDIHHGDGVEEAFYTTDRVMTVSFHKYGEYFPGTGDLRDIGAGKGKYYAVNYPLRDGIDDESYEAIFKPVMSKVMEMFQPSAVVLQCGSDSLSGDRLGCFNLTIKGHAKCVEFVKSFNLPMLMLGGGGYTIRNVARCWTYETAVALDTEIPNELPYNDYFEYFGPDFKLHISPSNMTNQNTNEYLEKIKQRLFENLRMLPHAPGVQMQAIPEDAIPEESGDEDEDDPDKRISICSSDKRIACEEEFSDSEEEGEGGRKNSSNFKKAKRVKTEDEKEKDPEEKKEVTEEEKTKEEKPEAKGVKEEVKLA

Results are given in words; binding and its absence hold for the method and conditions named. In cells and extracts the contact can be indirect. Some entries that bind do so weakly or less than the wild type. For some assays here: Tags and fused reporters may be left off the sequences shown.

For one assay, the target named is GST-fused CUL4B (UniProt Q13620). In words: pull-down; GST fusion proteins on Glutathione Sepharose 4B beads incubated with in vitro transcribed/translated products; 75 mM NaCl, 50 mM HEPES pH 7.9, 4 °C, 2 h; western blot; only the target purified.
Assay [1] deals with DDB1 (endogenous) (human (endogenous in MCF-7, MDA-MB-231, HEK293T)) (UniProt Q16531). The assay is described as follows: co-IP; endogenous proteins, MCF-7 whole-cell lysates (50 mM Tris-HCl pH 8.0, 150 mM NaCl, 0.5% NP40); IP with anti-CUL4B, anti-DDB1 or anti-ROC1, 12 h at 4 °C, immunoblot.
Assay [2] addresses CUL4B (endogenous) (human (endogenous in MCF-7, MDA-MB-231, HEK293T)) (UniProt Q13620). Described as above.
The next assay has as its target GST-fused MTA1 (UniProt Q13330). In words: pull-down; GST fusion proteins on Glutathione Sepharose 4B beads incubated with in vitro transcribed/translated products; 75 mM NaCl, 50 mM HEPES pH 7.9, 4 °C, 2 h; western blot; only the target purified.
In the next assay the target is GST-fused DDB1 (UniProt Q16531). Described as above.
The next assay has as its target GST-fused MTA2 (UniProt O94776). Described as above.
A further assay deals with T1, GST-fused MTA3 (UniProt Q9BTC8).
T1 sequence: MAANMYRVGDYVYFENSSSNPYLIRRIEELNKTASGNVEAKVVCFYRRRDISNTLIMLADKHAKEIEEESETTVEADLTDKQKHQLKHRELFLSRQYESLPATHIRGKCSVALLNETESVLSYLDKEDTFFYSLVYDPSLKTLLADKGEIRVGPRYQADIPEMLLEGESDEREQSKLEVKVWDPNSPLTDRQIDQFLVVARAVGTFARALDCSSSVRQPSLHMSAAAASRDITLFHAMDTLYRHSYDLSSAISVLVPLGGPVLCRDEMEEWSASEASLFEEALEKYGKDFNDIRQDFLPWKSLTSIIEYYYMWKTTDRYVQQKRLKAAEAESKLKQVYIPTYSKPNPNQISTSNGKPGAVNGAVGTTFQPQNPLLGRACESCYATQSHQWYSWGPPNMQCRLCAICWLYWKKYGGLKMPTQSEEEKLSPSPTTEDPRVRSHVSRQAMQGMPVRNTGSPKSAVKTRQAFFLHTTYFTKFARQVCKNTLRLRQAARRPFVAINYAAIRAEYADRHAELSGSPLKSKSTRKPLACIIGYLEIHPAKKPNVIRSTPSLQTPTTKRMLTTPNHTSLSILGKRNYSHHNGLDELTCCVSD
The assay is described as above.

Assay [3] concerns the target CUL4B (endogenous) (human (endogenous in MCF-7, MDA-MB-231, HEK293T)) (UniProt Q13620). In words: co-IP; endogenous proteins, MDA-MB-231 cells; IP with anti-CUL4B, immunoblot.

“HDAC3, in vitro transcribed/translated (from UniProt O15379 1-428) (enzyme)”: in the assay with GST-fused CUL4B, the binding entry is listed as “binds”.

In the case of “HDAC2, in vitro transcribed/translated (from UniProt Q92769 1-488) (enzyme)”, in the assay with GST-fused CUL4B, the binding result is listed as “binds”.

As to “HDAC3 (endogenous) (from UniProt O15379 1-428) (enzyme)”, the binding result in assay [1] and in assay [2] was “binds” in each case.

In the case of “Snail, in vitro transcribed/translated (from UniProt O95863 1-264)”, the binding entry was “binds” in the assay with GST-fused MTA1, “binds” with GST-fused DDB1, “binds” with GST-fused MTA2 and “no binding” in the assay with GST-fused MTA3.

As for “HDAC1 (endogenous) (from UniProt Q13547 1-482) (enzyme)”, the binding result in assay [1] and in assay [2] was “binds” throughout.

In the case of “DDB1, in vitro transcribed/translated (from UniProt Q16531 1-1140)”, the values for the binding result with GST-fused MTA1, in the assay with GST-fused MTA2 and in the assay with GST-fused MTA3 were “binds”, “binds” and “no binding”, respectively.

Regarding “HDAC2 (endogenous) (from UniProt Q92769 1-488) (enzyme)”, the binding result in assay [1] and in assay [2] was “binds” throughout.

Take “HDAC1, in vitro transcribed/translated (from UniProt Q13547 1-482) (enzyme)”: in the assay with GST-fused CUL4B, the binding entry is given as “binds”.

Regarding “CUL4B, in vitro transcribed/translated (from UniProt Q13620 1-913)”, the binding result with GST-fused MTA1 was “binds”; with GST-fused MTA2, “binds”; with GST-fused MTA3 it was “no binding”.

B1: ZEB2 (endogenous) (protein, UniProt O60315 1-1214)
chain: MKQPIMADGPRCKRRKQANPRRKNVVNYDNVVDTGSETDEEDKLHIAEDDGIANPLDQETSPASVPNHESSPHVSQALLPREEEEDEIREGGVEHPWHNNEILQASVDGPEEMKEDYDTMGPEATIQTAINNGTVKNANCTSDFEEYFAKRKLEERDGHAVSIEEYLQRSDTAIIYPEAPEELSRLGTPEANGQEENDLPPGTPDAFAQLLTCPYCDRGYKRLTSLKEHIKYRHEKNEENFSCPLCSYTFAYRTQLERHMVTHKPGTDQHQMLTQGAGNRKFKCTECGKAFKYKHHLKEHLRIHSGEKPYECPNCKKRFSHSGSYSSHISSKKCIGLISVNGRMRNNIKTGSSPNSVSSSPTNSAITQLRNKLENGKPLSMSEQTGLLKIKTEPLDFNDYKVLMATHGFSGTSPFMNGGLGATSPLGVHPSAQSPMQHLGVGMEAPLLGFPTMNSNLSEVQKVLQIVDNTVSRQKMDCKAEEISKLKGYHMKDPCSQPEEQGVTSPNIPPVGLPVVSHNGATKSIIDYTLEKVNEAKACLQSLTTDSRRQISNIKKEKLRTLIDLVTDDKMIENHNISTPFSCQFCKESFPGPIPLHQHERYLCKMNEEIKAVLQPHENIVPNKAGVFVDNKALLLSSVLSEKGMTSPINPYKDHMSVLKAYYAMNMEPNSDELLKISIAVGLPQEFVKEWFEQRKVYQYSNSRSPSLERSSKPLAPNSNPPTKDSLLPRSPVKPMDSITSPSIAELHNSVTNCDPPLRLTKPSHFTNIKPVEKLDHSRSNTPSPLNLSSTSSKNSHSSSYTPNSFSSEELQAEPLDLSLPKQMKEPKSIIATKNKTKASSISLDHNSVSSSSENSDEPLNLTFIKKEFSNSNNLDNKSTNPVFSMNPFSAKPLYTALPPQSAFPPATFMPPVQTSIPGLRPYPGLDQMSFLPHMAYTYPTGAATFADMQQRRKYQRKQGFQGELLDGAQDYMSGLDDMTDSDSCLSRKKIKKTESGMYACDLCDKTFQKSSSLLRHKYEHTGKRPHQCQICKKAFKHKHHLIEHSRLHSGEKPYQCDKCGKRFSHSGSYSQHMNHRYSYCKREAEEREAAEREAREKGHLEPTELLMNRAYLQSITPQGYSDSEERESMPRDGESEKEHEKEGEDGYGKLGRQDGDEEFEEEEEESENKSMDTDPETIRDEEETGDHSMDDSSEDGKMETKSDHEEDNMEDGM
On to B1, for which the binding entry in assay [3] is on record as “binds”.

B2: ZEB2, in vitro transcribed/translated (protein, UniProt O60315 1-1214)
chain: B1 chain
For the molecule B2, the binding entry with GST-fused MTA1 is on record as “binds”; with GST-fused DDB1, “binds”; with GST-fused MTA2 it was “binds”; with GST-fused MTA3, “no binding”.

B3: TBL1, in vitro transcribed/translated (protein, UniProt O60907 1-577)
chain: MTELAGASSSCCHRPAGRGAMQSVLHHFQRLRGREGGSHFINTSSPRGEAKMSITSDEVNFLVYRYLQESGFSHSAFTFGIESHISQSNINGTLVPPAALISILQKGLQYVEAEISINEDGTVFDGRPIESLSLIDAVMPDVVQTRQQAFREKLAQQQASAAAAAAAATAAATAATTTSAGVSHQNPSKNREATVNGEENRAHSVNNHAKPMEIDGEVEIPSSKATVLRGHESEVFICAWNPVSDLLASGSGDSTARIWNLNENSNGGSTQLVLRHCIREGGHDVPSNKDVTSLDWNTNGTLLATGSYDGFARIWTEDGNLASTLGQHKGPIFALKWNRKGNYILSAGVDKTTIIWDAHTGEAKQQFPFHSAPALDVDWQNNTTFASCSTDMCIHVCRLGCDRPVKTFQGHTNEVNAIKWDPSGMLLASCSDDMTLKIWSMKQEVCIHDLQAHNKEIYTIKWSPTGPATSNPNSNIMLASASFDSTVRLWDIERGVCTHTLTKHQEPVYSVAFSPDGKYLASGSFDKCVHIWNTQSGNLVHSYRGTGGIFEVCWNARGDKVGASASDGSVCVLDLRK
Turning to B3, the binding result with GST-fused DDB1 is reported as “binds”.

B4: Twist2 (endogenous) (protein, UniProt Q8WVJ9 1-160)
chain: MEEGSSSPVSPVDSLGTSEEELERQPKRFGRKRRYSKKSSEDGSPTPGKRGKKGSPSAQSFEELQSQRILANVRERQRTQSLNEAFAALRKIIPTLPSDKLSKIQTLKLAARYIDFLYQVLQSDEMDNKMTSCSYVAHERLSYAFSVWRMEGAWSMSASH
With B4, the binding result in assay [3] is “binds”.
